Source: PubChem BioAssay AID248 (DTP/NCI, 2004)
The list does not hold the whole screen: it is rich in T/C values a quarter to a half above the control, in often repeated tests (any T/C) and in doses without a T/C. Further doses and runs are listed elsewhere. T/C gives the treated animals as a percentage of the vehicle group. Some entries give survivors of the animals treated and no T/C: the source holds a T/C of zero for them, seemingly a mark for toxic or unscored doses. Some doses without a T/C left all or most animals alive at the check, yet need not have been tolerated: survival well below the control is almost never listed, so the zero probably covers shortened survival too. Counts of survivors are from the toxicity check (mostly the fifth day) where no day follows; animals may have died later. Schedule codes are those of the source, taken here to give the interval after Q, in days (D) or hours (H), and the number of doses after X. Some molecules as drawn cover several salts, stereoisomers or complexes of the source; a dose is that of the sample tested. Where survival is the endpoint, the PubChem record calls one and a half times the control and up active, and a quarter to a half above the control has no call in these data; cut-offs in other NCI protocols can differ. Some doses were run more than once; the values are given in rising order.

System: L1210 leukemia ip in BDF1 mice, survival T/C
Assay: NCI In Vivo Anticancer Drug Screen. Data for tumor model L1210 Leukemia (intraperitoneal) in B6D2F1 (BDF1) mice
Conditions: T/C endpoint: mean survival time, higher T/C = longer survival
[1] = dose: 100.0 mg/kg/injection, schedule: Q01DX001 (ip), vehicle: saline
[2] = dose: 200.0 mg/kg/injection, schedule: Q01DX001 (ip), vehicle: saline
[3] = dose: 200.0 mg/kg/injection, schedule: Q01DX009 (ip), vehicle: Klucel (hydroxypropylcellulose) (HPC)
[4] = dose: 200.0 mg/kg/injection, schedule: Q04DX003 (ip), vehicle: Klucel (hydroxypropylcellulose) (HPC)
[5] = dose: 400.0 mg/kg/injection, schedule: Q01DX001 (ip), vehicle: saline
[6] = dose: 400.0 mg/kg/injection, schedule: Q01DX009 (ip), vehicle: Klucel (hydroxypropylcellulose) (HPC)
[7] = dose: 400.0 mg/kg/injection, schedule: Q04DX003 (ip), vehicle: Klucel (hydroxypropylcellulose) (HPC)
[8] = dose: 300.0 mg/kg/injection, schedule: Q01DX001 (ip), vehicle: saline
[9] = dose: 400.0 mg/kg/injection, schedule: Q04DX002 (ip), vehicle: Klucel (hydroxypropylcellulose) (HPC)
[10] = dose: 100.0 mg/kg/injection, schedule: Q01DX009 (ip), vehicle: saline
[11] = dose: 50.0 mg/kg/injection, schedule: Q04DX003 (ip), vehicle: acetone
[12] = dose: 400.0 mg/kg/injection, schedule: Q01DX001 (ip), vehicle: other
[13] = dose: 400.0 mg/kg/injection, schedule: Q04DX003 (ip), vehicle: saline with Tween-80

## [F][Sn]([c]1ccc(Cl)cc1)([c]1ccc(Cl)cc1)[c]1ccc(Cl)cc1
dose: 1.5 mg/kg/injection, schedule: Q04DX003 (ip), vehicle: other
  survivor count: 4 of 6
dose: 3.0 mg/kg/injection, schedule: Q04DX003 (ip), vehicle: other
  survivor count: 3 of 6
dose: 6.0 mg/kg/injection, schedule: Q04DX003 (ip), vehicle: other
  survivor count: 2 of 6
dose: 12.5 mg/kg/injection, schedule: Q04DX003 (ip), vehicle: other
  survivor count: 1 of 6
dose: 25.0 mg/kg/injection, schedule: Q04DX003 (ip), vehicle: other
  survivor count: 0 of 6
dose: 50.0 mg/kg/injection, schedule: Q04DX003 (ip), vehicle: other
  survivor count: 0 of 6
dose: 100.0 mg/kg/injection, schedule: Q04DX003 (ip), vehicle: other
  survivor count: 0 of 6
dose: 200.0 mg/kg/injection, schedule: Q04DX003 (ip), vehicle: other
  survivor count: 0 of 6
dose: 400.0 mg/kg/injection, schedule: Q04DX003 (ip), vehicle: other
  survivor count: 0 of 6

## c1ccc(C[P+](c2ccccc2)(c2ccccc2)c2ccccc2)cc1
dose: 20.0 mg/kg/injection, schedule: Q01DX009 (ip), vehicle: saline with Tween-80
  survivor count: 2 of 6
dose: 25.0 mg/kg/injection, schedule: Q01DX009 (ip), vehicle: Klucel (hydroxypropylcellulose) (HPC)
  survivor count: 0 of 6
dose: 50.0 mg/kg/injection, schedule: Q01DX009 (ip), vehicle: Klucel (hydroxypropylcellulose) (HPC)
  survivor count: 0 of 6
dose: 50.0 mg/kg/injection, schedule: Q04DX003 (ip), vehicle: Klucel (hydroxypropylcellulose) (HPC)
  survivor count: 2 of 6
dose: 80.0 mg/kg/injection, schedule: Q01DX001 (ip), vehicle: saline
  survivor count: 0 of 6
[1]
  survivor count: 0 of 6
dose: 100.0 mg/kg/injection, schedule: Q01DX009 (ip), vehicle: Klucel (hydroxypropylcellulose) (HPC)
  survivor count: 0 of 6
dose: 100.0 mg/kg/injection, schedule: Q04DX003 (ip), vehicle: Klucel (hydroxypropylcellulose) (HPC)
  survivor count: 0 of 6
[2]
  survivor count: 0 of 6
[3]
  survivor count: 0 of 6
[4]
  survivor count: 0 of 6
[5]
  survivor count: 0 of 6
[6]
  survivor count: 0 of 6
[7]
  survivor count: 0 of 6

## O=C(CCl)c1cnc2ccccc2n1
dose: 75.0 mg/kg/injection, schedule: Q01DX001 (ip), vehicle: saline
  survivor count: 0 of 6
dose: 150.0 mg/kg/injection, schedule: Q01DX001 (ip), vehicle: saline
  survivor count: 0 of 6
[8]
  survivor count: 0 of 6

## CC(C)CNC(=O)Nc1ccccc1
[8]
  survivor count: 3 of 6

## CC1CN1C(=O)Nc1ccc(Cl)cc1 (centres undefined)
dose: 200.0 mg/kg/injection, schedule: Q04DX002 (ip), vehicle: other
  survivor count: 1 of 3
dose: 400.0 mg/kg/injection, schedule: Q04DX002 (ip), vehicle: other
  survivor count: 0 of 3

## CC(=O)Nc1nc(C)c(CCC(C)C)c(Cl)n1
dose: 100.0 mg/kg/injection, schedule: Q04DX002 (ip), vehicle: Klucel (hydroxypropylcellulose) (HPC)
  survivor count: 0 of 3
dose: 200.0 mg/kg/injection, schedule: Q04DX002 (ip), vehicle: Klucel (hydroxypropylcellulose) (HPC)
  survivor count: 0 of 3
[9]
  survivor count: 0 of 3

## C#CCOCCCC(=C)C
[10]
  survivor count: 0 of 6

## Cc1cc[n+]2cc3ccc4ccccc4c3c(C)c2c1
dose: 12.5 mg/kg/injection, schedule: Q01DX009 (ip), vehicle: acetone
  survivor count: 3 of 6
dose: 25.0 mg/kg/injection, schedule: Q04DX003 (ip), vehicle: acetone
  survivor count: 6 of 6
[11]
  survivor count: 0 of 6

## O=P(C1CCCCC1)(C1CCCCC1)C1CCCCC1
[6]
  survivor count: 1 of 6

## CC[N+](CC)(CC)CCCCC[N+](CC)(CC)CC
dose: 50.0 mg/kg/injection, schedule: Q01DX009 (ip), vehicle: water
  survivor count: 0 of 6
dose: 100.0 mg/kg/injection, schedule: Q04DX003 (ip), vehicle: saline with Tween-80
  survivor count: 0 of 6
dose: 100.0 mg/kg/injection, schedule: Q04DX003 (ip), vehicle: saline
  survivor count: 2 of 6
dose: 100.0 mg/kg/injection, schedule: Q04DX003 (ip), vehicle: water
  survivor count: 0 of 6
dose: 200.0 mg/kg/injection, schedule: Q04DX003 (ip), vehicle: saline
  survivor count: 0 of 6
dose: 200.0 mg/kg/injection, schedule: Q04DX003 (ip), vehicle: water
  survivor count: 0 of 6
dose: 400.0 mg/kg/injection, schedule: Q04DX003 (ip), vehicle: saline
  survivor count: 0 of 6
dose: 400.0 mg/kg/injection, schedule: Q04DX003 (ip), vehicle: water
  survivor count: 0 of 6

## CCCCCCCCCC(N)=O
[3]
  survivor count: 2 of 3

## CCCOP(=S)(NCCCOC)OCCC
[12]
  survivor count: 6 of 6

## Cc1c(Cl)cccc1CC(Cl)C#N (centres undefined)
dose: 50.0 mg/kg/injection, schedule: Q01DX009 (ip), vehicle: saline with Tween-80
  survivor count: 3 of 3
dose: 200.0 mg/kg/injection, schedule: Q01DX009 (ip), vehicle: saline with Tween-80
  survivor count: 1 of 3

## CC1(C)Oc2[nH]c(=O)n(-c3ccccc3)c(=O)c2C1c1ccc(Cl)cc1 (centres undefined)
[11]
  survivor count: 6 of 6
[1]
  survivor count: 6 of 6
[2]
  survivor count: 6 of 6
[5]
  survivor count: 0 of 6

## Cc1cc(C)c(C)c(C(C)O)c1C (centres undefined)
[13]
  survivor count: 6 of 6

## C#CCOCCC#N
dose: 400.0 mg/kg/injection, schedule: Q04DX002 (ip), vehicle: saline
  survivor count: 3 of 3

## CN1CCC(C=C2c3ccccc3CCc3ccccc32)C1 (centres undefined)
dose: 50.0 mg/kg/injection, schedule: Q01DX009 (ip), vehicle: saline
  survivor count: 6 of 6

## CCCCOP(=O)(Cc1cc(C)cc(C)c1)OCCCC
[13]
  survivor count: 1 of 6

## CC(CCc1ccccc1)N(C)C(=O)CNC(=O)CN1C(=O)c2ccccc2C1=O (centres undefined)
[5]
  survivor count: 2 of 4

## Cc1ccccc1NC(=S)N(C)C
[4]
  survivor count: 0 of 6
[7]
  survivor count: 0 of 6

## COC(=O)c1ccccc1N=NN(C)C1CCCCC1
dose: 400.0 mg/kg/injection, schedule: Q01DX009 (ip), vehicle: other
  survivor count: 0 of 6

## O=[N+]([O-])c1cccc(Cl)c1F
[9]
  survivor count: 0 of 3

## NC(=O)N/N=C(/CBr)c1ccc(-c2ccccc2)cc1
[2]
  survivor count: 3 of 6
[5]
  survivor count: 0 of 6

## O=S(O)c1ncnc2nc[nH]c12
[10]
  T/C: 129 % of control
dose: 200.0 mg/kg/injection, schedule: Q01DX009 (ip), vehicle: saline
  T/C: 131 % of control
dose: 265.0 mg/kg/injection, schedule: Q01DX009 (ip), vehicle: saline
  T/C: 127 % of control
dose: 400.0 mg/kg/injection, schedule: Q01DX009 (ip), vehicle: saline
  T/C: 136 and 148 % of control

## C[C@@H](C[P+](c1ccccc1)(c1ccccc1)c1ccccc1)[C@](OC(=O)c1ccccc1)(C(=O)c1ccccc1)c1ccccc1
dose: 100.0 mg/kg/injection, schedule: Q01DX001 (ip), vehicle: saline with Tween-80
  survivor count: 0 of 6
dose: 200.0 mg/kg/injection, schedule: Q01DX001 (ip), vehicle: saline with Tween-80
  survivor count: 0 of 6
dose: 400.0 mg/kg/injection, schedule: Q01DX001 (ip), vehicle: saline with Tween-80
  survivor count: 0 of 6

## CN(N=O)C(=O)NC1C=CCCC1 (centres undefined)
[12]
  survivor count: 5 of 10

## CC(Cl)(/N=N/C(C)(Cl)c1cccc(Cl)c1)c1ccc(Cl)cc1 (centres undefined)
dose: 200.0 mg/kg/injection, schedule: Q04DX003 (ip), vehicle: saline with Tween-80
  survivor count: 0 of 4
[13]
  survivor count: 1 of 4
